Data: PubChem BioAssay AID256 (DTP/NCI, 2004)
The list does not hold the whole screen: it gathers tests that were run many times, whatever their T/C, doses with no T/C, and many T/C values between a quarter and a half above the control. Other doses and runs of a compound stand elsewhere. T/C: endpoint of the treated group in % of that of the vehicle group. Some doses have a count of surviving animals in place of a T/C: the source holds a T/C of zero for them, seemingly a mark for toxic or unscored doses. Some survivor counts are full or nearly so, which does not show that the dose was tolerated: the source hardly ever lists a survival T/C far under the control, and the zero likely stands for such cases as well. Survivors were counted at the toxicity check, usually on the fifth day, unless a day is given; later deaths do not show. Schedule codes are those of the source, taken here to give the interval after Q, in days (D) or hours (H), and the number of doses after X. Some doses were run more than once; the results are listed from low to high. Some schedule codes hold Z or #, which are not explained here. Where survival is the endpoint, the PubChem record calls one and a half times the control and up active, and a quarter to a half above the control has no call in these data; cut-offs in other NCI protocols can differ. Additions like (4×) give the number of equal values in this list. Some T/C values are followed by the survivors on the day toxicity was checked, most often the fifth; where none is given, no animal had died by that day.

Tested on: CD2F1 mice, L1210 leukemia ip, survival T/C
Assay: NCI In Vivo Anticancer Drug Screen. Data for tumor model L1210 Leukemia (intraperitoneal) in CD2F1 (CDF1) mice
Conditions: higher T/C = longer survival
Method in brief: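 Antitumor effect is scored in animals hosting a serially transplanted tumor. Values compare compound-dosed animals against vehicle-only controls as a simple quotient.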

[1] = T/C endpoint: mean survival time, dose: 400.0 mg/kg/injection, schedule: Q01DX009 (ip), vehicle: saline
[2] = T/C endpoint: mean survival time, dose: 200.0 mg/kg/injection, schedule: Q01DX009 (ip), vehicle: saline with Tween-80
[3] = T/C endpoint: mean survival time, dose: 400.0 mg/kg/injection, schedule: Q01DX009 (ip), vehicle: saline with Tween-80
[4] = T/C endpoint: mean survival time, dose: 200.0 mg/kg/injection, schedule: Q04DX002 (ip), vehicle: saline with Tween-80
[5] = T/C endpoint: mean survival time, dose: 400.0 mg/kg/injection, schedule: Q04DX002 (ip), vehicle: saline with Tween-80
[6] = T/C endpoint: mean survival time, dose: 200.0 mg/kg/injection, schedule: Q04DX003 (ip), vehicle: saline with Tween-80
[7] = T/C endpoint: mean survival time, dose: 400.0 mg/kg/injection, schedule: Q04DX003 (ip), vehicle: saline with Tween-80
[8] = T/C endpoint: mean survival time, dose: 10.0 mg/kg/injection, schedule: Q01DX001 (ip), vehicle: saline
[9] = T/C endpoint: mean survival time, dose: 20.0 mg/kg/injection, schedule: Q01DX001 (ip), vehicle: saline
[10] = T/C endpoint: mean survival time, dose: 40.0 mg/kg/injection, schedule: Q01DX001 (ip), vehicle: saline
[11] = T/C endpoint: mean survival time, dose: 400.0 mg/kg/injection, schedule: Q01DX001 (ip), vehicle: saline
[12] = T/C endpoint: mean survival time, dose: 0.31 mg/kg/injection, schedule: Q01DX009 (ip), vehicle: lactic acid

In the case of `Cc1cc(NC(=O)CCc2ccc(N)cc2)ccc1S(=O)(=O)F`, the survivor count (T/C endpoint: mean survival time, dose: 50.0 mg/kg/injection, schedule: Q01DX009 (ip), vehicle: Klucel (hydroxypropylcellulose) (HPC)) is reported as 0 of 6 and the T/C (T/C endpoint: mean survival time, dose: 100.0 mg/kg/injection, schedule: Q01DX009 (ip), vehicle: Klucel (hydroxypropylcellulose) (HPC)) is reported as 125 % of control.

With `COc1cccc(/C=N/NC(=O)c2ccccc2N2CCCC2)c1O` the survivor count (T/C endpoint: mean survival time, dose: 400.0 mg/kg/injection, schedule: Q01DX009 (ip), vehicle: olive oil, sesame oil, peanut oil) was 6 of 6.

`C=CCOCC1CO1` (stereo not drawn) was tested, and the T/C [1] was 127 % of control [4 of 6 alive] and the survivor count [1] was 1 of 6.

In the case of `CC(C)=CCNc1ncnc2c1ncn2C1OC(CO)C(O)C1O` (stereo not drawn), the survivor count [2] is reported as 1 of 6 and the survivor count [3] is reported as 0 of 6.

With `N#[N+]c1c([O-])[nH]c2ccccc12` the survivor count (T/C endpoint: median survival time, dose: 400.0 mg/kg/injection, schedule: Q04DX002 (ip), vehicle: saline with Tween-80) was 3 of 3.

In the case of `COC(=O)[C@@H]1c2cc3c(c(O)c2[C@@H](OC2OC(C)C(OC)C(C)(OC)C2OC)C[C@]1(C)O)C(=O)c1c(O)cc2c(c1C3=O)O[C@H]1O[C@]2(C)[C@H](O)[C@@H](N(C)C)[C@@H]1O` (stereo partly drawn), the survivor count (T/C endpoint: mean survival time, dose: 2.0 mg/kg/injection, schedule: Q01DX009 (ip), vehicle: other) is reported as 3 of 6 and 4 of 6.

For `CCCCCCCCCC(=O)NC(=S)Nc1ccc(Cl)cc1`, the T/C (T/C endpoint: mean survival time, dose: 100.0 mg/kg/injection, schedule: Q01DX009 (ip), vehicle: saline with Tween-80) was 91, 95, 98 % of control (2×), the T/C [2] was 93 % of control [4 of 6 alive] and the survivor count [2] was 0 of 3, 1 of 3, 5 of 6. The survivor count [3] was 0 of 3 and 0 of 6.

`C1CCC(N2CCOCC2)CC1` was tested, and the survivor count (T/C endpoint: mean survival time, dose: 100.0 mg/kg/injection, schedule: Q04DX002 (ip), vehicle: saline) was 0 of 3.

For `C/C=C/C[P+](c1ccccc1)(c1ccccc1)c1cccc2ccccc12`, the survivor count (T/C endpoint: mean survival time, dose: 100.0 mg/kg/injection, schedule: Q04DX002 (ip), vehicle: saline with Tween-80) was 0 of 3, the survivor count [4] was 0 of 3 and the survivor count [5] was 0 of 3.

In the case of `COc1cc2cc3c4cc5c(cc4cc[n+]3c(C)c2cc1OC)OCO5` (tested in a mixture with another compound), the survivor count [6] is reported as 1 of 6 and the survivor count [7] is reported as 0 of 6.

For `CS(=O)(=O)SC(F)(F)F`, the survivor count [8] was 2 of 6, the survivor count [9] was 0 of 6 and the survivor count [10] was 0 of 6. The survivor count (T/C endpoint: mean survival time, dose: 80.0 mg/kg/injection, schedule: Q01DX001 (ip), vehicle: saline) was 0 of 6.

For `CCCCOc1c(OCCCC)c(=O)c1=O`, the T/C [11] was 129 % of control [4 of 6 alive].

For `CCOC(=O)CS(=O)c1c([N+](=O)[O-])ncn1C` (stereo not drawn), the survivor count (T/C endpoint: mean survival time, dose: 100.0 mg/kg/injection, schedule: Q04DX003 (ip), vehicle: saline with Tween-80) was 2 of 6, the survivor count [6] was 0 of 6 and the survivor count [7] was 0 of 6.

For `OCc1cn2c(c1CO)CCC2`, the T/C (T/C endpoint: mean survival time, dose: 50.0 mg/kg/injection, schedule: Q01DX009 (ip), vehicle: water) was 125 % of control, the survivor count (T/C endpoint: mean survival time, dose: 100.0 mg/kg/injection, schedule: Q01DX009 (ip), vehicle: water) was 2 of 6 and the survivor count (T/C endpoint: mean survival time, dose: 200.0 mg/kg/injection, schedule: Q01DX009 (ip), vehicle: water) was 1 of 6.

In the case of `COc1ccc2c(NCCCCCCNc3c4ccccc4nc4cc(OC)ccc34)c3ccccc3nc2c1`, the survivor count (T/C endpoint: mean survival time, dose: 0.07 mg/kg/injection, schedule: Q01DX009 (ip), vehicle: lactic acid) is reported as 3 of 6, the survivor count (T/C endpoint: mean survival time, dose: 0.15 mg/kg/injection, schedule: Q01DX009 (ip), vehicle: lactic acid) is reported as 2 of 6 and the T/C [12] is reported as 132 % of control. The survivor count [12] was 6 of 6, the survivor count (T/C endpoint: mean survival time, dose: 0.62 mg/kg/injection, schedule: Q01DX009 (ip), vehicle: lactic acid) was 2 of 6 and the T/C (T/C endpoint: mean survival time, dose: 0.63 mg/kg/injection, schedule: Q01DX009 (ip), vehicle: lactic acid) was 127 % of control [5 of 6 alive]. For the same compound, the survivor count (T/C endpoint: mean survival time, dose: 1.25 mg/kg/injection, schedule: Q01DX009 (ip), vehicle: lactic acid) was 0 of 6 and the survivor count (T/C endpoint: mean survival time, dose: 2.5 mg/kg/injection, schedule: Q01DX009 (ip), vehicle: lactic acid) was 0 of 6.

With `O=C1C2C3CCC(O3)C2C(=O)N1CO` (stereo not drawn) the survivor count [4] was 2 of 3 and the survivor count [5] was 0 of 3.

For `CS(=O)(=O)CS(=O)(=O)OCCCl`, the T/C (T/C endpoint: median survival time, dose: 12.5 mg/kg/injection, schedule: Q01DX009 (ip), vehicle: saline with Tween-80) was 140 % of control, the survivor count (T/C endpoint: median survival time, dose: 100.0 mg/kg/injection, schedule: Q01DX009 (ip), vehicle: saline with Tween-80) was 4 of 6 and the survivor count (T/C endpoint: median survival time, dose: 200.0 mg/kg/injection, schedule: Q01DX009 (ip), vehicle: saline with Tween-80) was 0 of 6. For the same compound, the survivor count (T/C endpoint: median survival time, dose: 200.0 mg/kg/injection, schedule: Q01DX009 (ip), vehicle: saline) was 0 of 6.

`N=C(N)SCc1c2ccccc2c(CSC(=N)N)c2ccccc12` was tested, and the T/C (T/C endpoint: mean survival time, dose: 0.26 mg/kg/injection, schedule: Q#B X Z (ip), vehicle: saline) was 131 % of control, the T/C (T/C endpoint: mean survival time, dose: 0.52 mg/kg/injection, schedule: Q#B X Z (ip), vehicle: saline) was 141 and 143 % of control and the T/C (T/C endpoint: mean survival time, dose: 1.56 mg/kg/injection, schedule: Q01DX Z (ip), vehicle: saline) was 130 % of control. The T/C (T/C endpoint: mean survival time, dose: 2.5 mg/kg/injection, schedule: Q01DX001 (ip), vehicle: saline) was 130 % of control, the T/C (T/C endpoint: mean survival time, dose: 3.13 mg/kg/injection, schedule: Q01DX Z (ip), vehicle: saline) was 143 % of control and the T/C (T/C endpoint: mean survival time, dose: 4.16 mg/kg/injection, schedule: Q#B X Z (ip), vehicle: saline) was 133 % of control. For the same compound, the T/C (T/C endpoint: mean survival time, dose: 5.0 mg/kg/injection, schedule: Q01DX001 (ip), vehicle: saline) was 145 % of control, the T/C [8] was 144 % of control and the T/C [9] was 144 % of control. For the same compound, the survivor count (T/C endpoint: mean survival time, dose: 33.33 mg/kg/injection, schedule: Q#B X Z (ip), vehicle: saline) was 6 of 6, the T/C [10] was 142 % of control and the T/C (T/C endpoint: mean survival time, dose: 50.0 mg/kg/injection, schedule: Q01DX009 (ip), vehicle: saline) was 144 % of control. For the same compound, the T/C (T/C endpoint: mean survival time, dose: 50.0 mg/kg/injection, schedule: Q01DX Z (ip), vehicle: saline) was 127 % of control, the T/C (T/C endpoint: mean survival time, dose: 50.0 mg/kg/injection, schedule: Q06HX008 (ip), vehicle: saline) was 135 % of control and the survivor count (T/C endpoint: mean survival time, dose: 66.66 mg/kg/injection, schedule: Q#B X Z (ip), vehicle: saline) was 3 of 6. The T/C (T/C endpoint: mean survival time, dose: 100.0 mg/kg/injection, schedule: Q06HX004 (ip), vehicle: saline) was 132 % of control, the T/C (T/C endpoint: mean survival time, dose: 100.0 mg/kg/injection, schedule: Q06HX008 (ip), vehicle: saline) was 141 % of control and the T/C (T/C endpoint: mean survival time, dose: 160.0 mg/kg/injection, schedule: Q01DX001 (ip), vehicle: saline) was 134 % of control. The T/C (T/C endpoint: mean survival time, dose: 200.0 mg/kg/injection, schedule: Q06HX004 (ip), vehicle: saline) was 137 % of control, the T/C (T/C endpoint: mean survival time, dose: 250.0 mg/kg/injection, schedule: Q01DX001 (ip), vehicle: saline) was 136 % of control and the T/C [11] was 145 % of control. For the same compound, the survivor count (T/C endpoint: mean survival time, dose: 400.0 mg/kg/injection, schedule: Q01DX Z (ip), vehicle: saline) was 4 of 6, the T/C (T/C endpoint: mean survival time, dose: 400.0 mg/kg/injection, schedule: Q03HX008 (ip), vehicle: saline) was 130 % of control [9 of 10 alive] and the T/C (T/C endpoint: mean survival time, dose: 400.0 mg/kg/injection, schedule: Q12HX002 (ip), vehicle: saline) was 128 % of control. The T/C (T/C endpoint: mean survival time, dose: 500.0 mg/kg/injection, schedule: Q01DX001 (ip), vehicle: saline) was 147 % of control, the survivor count (T/C endpoint: mean survival time, dose: 640.0 mg/kg/injection, schedule: Q01DX001 (ip), vehicle: saline) was 4 of 6 and the survivor count (T/C endpoint: mean survival time, dose: 1600.0 mg/kg/injection, schedule: Q01DX010 (oral), vehicle: saline) was 6 of 6. The T/C (T/C endpoint: mean survival time, dose: 2000.0 mg/kg/injection, schedule: Q01DX001 (ip), vehicle: saline) was 142 % of control and the T/C (T/C endpoint: mean survival time, dose: 4000.0 mg/kg/injection, schedule: Q01DX001 (ip), vehicle: saline) was 145 % of control.
